Common to all, as to assay: co-IP; HEK293T co-transfected with 3HA-SSTR (or an SSTR chimera) and 2Flag-MRAP1 or 2Flag-MRAP2; lysate immunoprecipitated with anti-HA overnight at 4 °C, protein A/G beads; blots with anti-HA and anti-Flag
The target in test [1] is SSTR2 with ECL1-TM3 replaced by the corresponding region of SSTR3 (mouse).
The target of test [2] is S3(E4 + T7): SSTR2/SSTR3 chimera with ECL4 + TM7 of SSTR3 (mouse).
The target in test [3] is SSTR2/SSTR3 chimera E1 + T1 (ECL1 + TM1 of SSTR3) (mouse).
The target of test [4] is SSTR2/SSTR5 chimera I2 + T4 (ICL2 + TM4 of SSTR5) (mouse).
The target in test [5] is SSTR2 with ECL1-TM3 replaced by the corresponding region of SSTR5 (mouse).
The target in test [6] is SSTR2/SSTR5 chimera I3 + T6 (ICL3 + TM6 of SSTR5) (mouse).
For test [7], the target named is SSTR2/SSTR3 chimera I1 + T2 (ICL1 + TM2 of SSTR3) (mouse).
Test [8] addresses S3(E3 + T5): SSTR2/SSTR3 chimera with ECL3 + TM5 of SSTR3 (mouse).
For test [9], the target named is SSTR2/SSTR3 chimera E2 + T3 (ECL2 + TM3 of SSTR3) (mouse).
The target in test [10] is SSTR2/SSTR5 chimera E4 + T7 (ECL4 + TM7 of SSTR5) (mouse).
The target in test [11] is SSTR2 with ICL2-ICL4 replaced by the corresponding region of SSTR3 (mouse).
Test [12] has as its target SSTR2 with ICL2-ICL4 replaced by the corresponding region of SSTR5 (mouse).
The target of test [13] is SSTR2/SSTR3 chimera I2 + T4 (ICL2 + TM4 of SSTR3) (mouse).
The target in test [14] is SSTR2/SSTR5 chimera E3 + T5 (ECL3 + TM5 of SSTR5) (mouse).
Test [15] addresses S3(I3 + T6): SSTR2/SSTR3 chimera with ICL3 + TM6 of SSTR3 (mouse).

Drawing on article PMC8773839, this text covers binding for one molecule.

No constants are given. Whether binding was seen depends on the method and setting. In cells and extracts the contact can be indirect. For part of these data: A result given as binding can be weak or reduced; the word gives no strength. Tags and fused reporters may be left off the sequences shown.

B1: 2Flag-MRAP1 (melanocortin receptor accessory protein 1, mouse) (protein, UniProt Q9D159 1-127)
chain: MANGTDASVPLTSYEYYLDYIDLIPVDEKKLKANKHSIVIALWLSLATFVVLLFLILLYMSWSGSPQMRHSPQPQPICSWTHSFNLPLCLRRASLQTTEEPGRRAGTDQWLTQQSPSASAPGPLALP
Consider B1, for which the binding result in test [1] is recorded as “binds”; in [2], “binds”; in [3] it was “binds weakly”; in test [4], “no binding”; in test [5] it was “no binding”; in [6], “binds”. Moreover, the binding result in test [7] was “binds”; in [8], “binds”; in [9], “binds weakly”; in test [10] it was “binds”; in test [11], “binds”; in test [12], “binds”. The binding result in test [13] is recorded as “no binding”; in [14] it was “no binding”; in test [15], “binds”.
